Laboratory results taken from publication PMC12288466, “EzrA promotes Z-ring formation through interaction of its QNR motif with FtsA” (Journal of Bacteriology, 2025).
These are yes or no findings as the source states them, for the method shown. Some results given as binding are weak or reduced against the parent protein; the word gives no strength. Sequences can lack the tags named with a protein.

T1: FtsA of B. subtilis, bacterial two-hybrid fusion (B. subtilis) (UniProt P28264)
T1 sequence: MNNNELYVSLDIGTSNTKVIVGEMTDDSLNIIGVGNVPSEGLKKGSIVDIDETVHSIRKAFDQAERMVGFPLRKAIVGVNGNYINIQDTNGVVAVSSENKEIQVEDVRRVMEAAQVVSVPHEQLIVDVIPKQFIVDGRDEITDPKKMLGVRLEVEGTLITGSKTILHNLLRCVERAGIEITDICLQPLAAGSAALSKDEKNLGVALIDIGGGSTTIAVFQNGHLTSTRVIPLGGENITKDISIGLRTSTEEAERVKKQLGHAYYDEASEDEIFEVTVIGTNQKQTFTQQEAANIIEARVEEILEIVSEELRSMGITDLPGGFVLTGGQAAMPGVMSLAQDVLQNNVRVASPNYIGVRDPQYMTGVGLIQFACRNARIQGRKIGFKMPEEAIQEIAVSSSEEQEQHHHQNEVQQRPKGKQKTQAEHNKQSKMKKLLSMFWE

T2: FtsA of E. faecalis, bacterial two-hybrid fusion (E. faecalis) (UniProt O07111)
T2 sequence: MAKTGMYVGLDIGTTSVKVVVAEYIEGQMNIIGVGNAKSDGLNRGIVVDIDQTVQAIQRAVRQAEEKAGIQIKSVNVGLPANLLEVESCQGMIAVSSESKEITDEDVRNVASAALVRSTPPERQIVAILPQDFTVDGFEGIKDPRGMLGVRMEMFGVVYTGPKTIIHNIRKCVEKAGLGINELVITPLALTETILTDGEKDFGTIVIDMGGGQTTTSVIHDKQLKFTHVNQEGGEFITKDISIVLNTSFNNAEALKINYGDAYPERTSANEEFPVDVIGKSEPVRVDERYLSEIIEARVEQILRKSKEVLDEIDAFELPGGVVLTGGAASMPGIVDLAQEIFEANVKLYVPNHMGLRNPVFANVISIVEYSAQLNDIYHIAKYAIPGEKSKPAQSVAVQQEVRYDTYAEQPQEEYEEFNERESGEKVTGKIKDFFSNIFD

B1: EzrA of B. subtilis, bacterial two-hybrid fusion (protein, UniProt O34894 1-562)
chain: MEFVIGLLIVLLALFAAGYFFRKKIYAEIDRLESWKIEILNRSIVEEMSKIKHLKMTGQTEEFFEKWREEWDEIVTAHMPKVEELLYDAEENADKYRFKKANQVLVHIDDLLTAAESSIEKILREISDLVTSEEKSREEIEQVRERYSKSRKNLLAYSHLYGELYDSLEKDLDEIWSGIKQFEEETEGGNYITARKVLLEQDRNLERLQSYIDDVPKLLADCKQTVPGQIAKLKDGYGEMKEKGYKLEHIQLDKELENLSNQLKRAEHVLMTELDIDEASAILQLIDENIQSVYQQLEGEVEAGQSVLSKMPELIIAYDKLKEEKEHTKAETELVKESYRLTAGELGKQQAFEKRLDEIGKLLSSVKDKLDAEHVAYSLLVEEVASIEKQIEEVKKEHAEYRENLQALRKEELQARETLSNLKKTISETARLLKTSNIPGIPSHIQEMLENAHHHIQETVNQLNELPLNMEEAGAHLKQAEDIVNRASRESEELVEQVILIEKIIQFGNRFRSQNHILSEQLKEAERRFYAFDYDDSYEIAAAAVEKAAPGAVEKIKADISA
B2: EzrA of Enterococcus faecalis, bacterial two-hybrid fusion (protein, UniProt Q838R5 1-578)
chain: MKNNWIIILVLVIVIIAAVLYLIGYFMRKKNQEQLDELEVRKEALFDLPVFEEIDDIKKMHLVGQSQNSFREWNQRWVELSTRSFAELESQIYEVENQNEIFRFMKAKKAVVEANETMTEMEAEVEVIRNGLKELRESEERNSLEVQKALDVYEELSKSLKDDKASFGPAYSEIQKQLRNVEIEFTQFVTLNTSGDPIEAREVLEDAERHTYELEDLMKRIPPMYEELNETFPDQLKEIEEGYNQLLADDYVFPEQNFAEEIQHAKKRVENSMADLEKTEIAAVEVANRDTATAIDALYEVMEREIEAKKYVVTNQKIIDDYISHSLKNNRQLMIELDHVSQSYTLNNNELGRSRGFQTEIEEIIRRQKDLEPRMKEHTVPYSEIQAFYKECYKILDDIENQQLEIDASLKELRKGEKVAQEKVDEYEFRLRSIKRYVEKQRLPGLSADYLEFFYVATDRIEDLSRALNKMRINMDEINRLCDLCEDDLELLDKKTKDLVNAAALTEQMMQYANRYRHTHENIRAALDKSMYLFSTEFRYQDALDEIGTALEAVEPGAFKRIEDFYFKNINNPNLTAI

Experiments:
[1] = target: T1, FtsA of B. subtilis, bacterial two-hybrid fusion (B. subtilis); experiment: two-hybrid; bacterial two-hybrid (pUT18/pKT25) in E. coli BTH101, spots on LB agar with X-Gal and IPTG, 30°C, 24 h
[2] = target: T1, FtsA of B. subtilis, bacterial two-hybrid fusion (B. subtilis); experiment: two-hybrid; bacterial two-hybrid (pUT18/pKT25) in E. coli BTH101, β-galactosidase activity of cultures grown at 30°C for 16 h
[3] = target: T2, FtsA of E. faecalis, bacterial two-hybrid fusion (E. faecalis); experiment: two-hybrid; bacterial two-hybrid (pUT18/pKT25) in E. coli BTH101, spots on LB agar with X-Gal and IPTG, 30°C, 24 h
[4] = target: T2, FtsA of E. faecalis, bacterial two-hybrid fusion (E. faecalis); experiment: two-hybrid; bacterial two-hybrid (pUT18/pKT25) in E. coli BTH101, β-galactosidase activity of cultures grown at 30°C for 16 h

| Binder | binding [1] | binding [2] | binding [3] | binding [4] |
| --- | --- | --- | --- | --- |
| B1 | binds | binds |  |  |
| B2 |  |  | binds | binds |
